Where a chain is given by its changes, count along the chain named. No constants are given. Whether binding was seen depends on the method and setting.
B1: lambda-5 antibody 4-7A6 (mouse mAb purified from hybridoma) (antibody, V domains shown)
VH: EVQLQQSGTVLARPGTSVKMSCKASGYTFTSYWMHWVKQRPGQGLEWIGAIYLGNTDTSYNQKFKGKAKLTAVTSASSAYMELSSLTNEDSAVYYCTRADYDGTPFDYWGQGTTLTVSS
VL: DVVMTQNALTLSVTIGHPASISCRSSQSLLDSDGETYLSWLLQRPGQSPKRLIYLVSKLDSGVPDRFTGSGSGTDFTLKISRVEAEDLGVYYCWQGTHFPLTFGAGTKLELKR
B2: VpreB antibody 5-2D7 (recombinant mouse-human chimeric IgG1/kappa) (antibody, V domains shown)
VH: QVQLQQPGAELVKPGASVKLSCKASGYTFTSYWMQWVKQRPGQGLEWIGEINPSNGRINYNEKFKSKATLTVDISSSTAYMQLSSLTSEDSAVYYCARSGLLDYWGQGTTLTDSS
VL: DVLMTQTPLSLPVSLGDQASISCRSSQSLIHSNGNTYLHWSLQKPGQSPKLLIYKVSNRFSGVPDRFSGSGSGTDFTLKISSVEAEDLGVYFCSQSTYVPLTFGAGTKLELKR
B3: lambda-5 antibody 4-15E6 (recombinant mouse-human chimeric IgG1/kappa) (antibody, V domains shown)
VH: EVQLEESGAELVRSGASVKLSCTASGFNIKDYYLHWVKQRPEQGLEWIGWIDPENGNTDYAPKFQGKATMTADTSSNTAYLQLSSLTSEDTAVYYCNEGYYDYDTDSAMDYWGQGTSVTVSS
VL: B2 VL with I30V, N33D, N35I, S41Y, S82R, Y98R, L101W, A105G, L111I
B4: VpreB antibody 5-14H5 (recombinant mouse-human chimeric IgG1/kappa) (antibody, V domains shown)
VH: B2 VH with Y32N, Q35N, I74K, D113V
VL: B2 VL with I30V, S41Y, S82R, V99L, K108R
B5: VpreB antibody 5-4A9 (recombinant mouse-human chimeric IgG1/kappa) (antibody, V domains shown)
VH: B2 VH with Q1E, P7S, K19Q, I58N, S66R, I74T, D113V
VL: B2 VL with I30V, S41Y, K79T, S82R
B6: VpreB antibody 5-14A8 (recombinant mouse-human chimeric IgG1/kappa) (antibody, V domains shown)
VH: EVQLEESGPSLVKPSQTLSLTCSVTGDSITSDYWTWIRKFPGNILEYMGYISSSGRIYYNPSLKSRISITRDTSKNQYYLQLSSVTTEDTATYYCARERYYYGSLDYWGQGTTLTVSS
VL: B2 VL with S28G, I30V, S41Y, S82R, S96T, Y98H, L101P, A105G, L111I

The binders below were run against human Ig lambda light chain (on the human B cell line Ramos) (human) (assay: flow cytometry on Ramos cells).

binding | Binder
no binding (tested: 20 nM) | B1
no binding (tested: 20 nM) | B2
no binding (tested: 20 nM) | B3
no binding (tested: 20 nM) | B4
no binding (tested: 20 nM) | B5
no binding (tested: 20 nM) | B6

What follows are binders tested against human Ig kappa light chain (on the human B cell line Raji) (human) (assay: flow cytometry on Raji cells).

binding | Binder
no binding (tested: 20 nM) | B1
no binding (tested: 20 nM) | B2
no binding (tested: 20 nM) | B3
no binding (tested: 20 nM) | B4
no binding (tested: 20 nM) | B5
no binding (tested: 20 nM) | B6
